Data: patent US20100055033A1
These are yes or no findings as the source states them, for the method shown. Some binding calls cover weakened binding; strength is not graded here.

Sequences of proteins named here, by UniProt entry; tags and fusion partners are left off. Residues count along the entry.
UniProt P08069, residues 31-932: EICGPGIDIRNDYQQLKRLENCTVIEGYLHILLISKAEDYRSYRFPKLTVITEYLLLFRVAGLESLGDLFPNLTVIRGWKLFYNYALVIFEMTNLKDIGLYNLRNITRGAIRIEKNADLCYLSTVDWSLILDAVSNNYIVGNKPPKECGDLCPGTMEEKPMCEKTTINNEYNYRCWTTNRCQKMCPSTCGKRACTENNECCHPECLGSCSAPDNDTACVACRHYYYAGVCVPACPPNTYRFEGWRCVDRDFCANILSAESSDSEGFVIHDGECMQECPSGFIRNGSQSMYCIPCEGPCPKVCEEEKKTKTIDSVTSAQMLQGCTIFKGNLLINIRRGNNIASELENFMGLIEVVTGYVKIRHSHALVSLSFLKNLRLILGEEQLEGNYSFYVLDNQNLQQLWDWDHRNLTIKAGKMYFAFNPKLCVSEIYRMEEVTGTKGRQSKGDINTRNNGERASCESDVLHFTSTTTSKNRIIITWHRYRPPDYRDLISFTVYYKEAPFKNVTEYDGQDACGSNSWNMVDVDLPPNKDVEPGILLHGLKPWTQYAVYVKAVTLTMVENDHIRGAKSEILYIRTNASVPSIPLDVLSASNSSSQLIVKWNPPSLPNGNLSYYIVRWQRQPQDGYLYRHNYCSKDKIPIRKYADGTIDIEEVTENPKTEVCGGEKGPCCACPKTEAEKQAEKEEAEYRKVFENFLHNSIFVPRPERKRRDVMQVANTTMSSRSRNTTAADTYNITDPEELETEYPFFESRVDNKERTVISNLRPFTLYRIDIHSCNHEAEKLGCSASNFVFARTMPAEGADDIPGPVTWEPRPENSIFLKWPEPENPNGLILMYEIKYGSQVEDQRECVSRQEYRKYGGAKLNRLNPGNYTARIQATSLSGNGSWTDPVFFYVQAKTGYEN
UniProt P01344, residues 25-91: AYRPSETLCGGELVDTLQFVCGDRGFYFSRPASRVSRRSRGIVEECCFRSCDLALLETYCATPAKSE

How the values were obtained:
[1] = target: insulin-like growth factor 1 receptor (soluble IGF-IR) (UniProt P08069); experiment: competition ELISA: IGF-II at 500 nM against the binding of IGF-I (50 nM) to soluble IGF-IR
[2] = target: insulin-like growth factor 1 receptor (soluble IGF-IR) (UniProt P08069); experiment: competition ELISA: IGF-II against the binding of IGF-I to IGF-1 receptor, one concentration (not given for this figure)

binding [1]: binds | binding [2]: binds
Substance: human insulin-like growth factor II (from UniProt P01344 25-91) (ligand)
